Results taken from publication doi:10.1101/2023.02.03.527076.
These are yes or no findings as the source states them, for the method shown. For some assays here: Binding calls can cover weak binding; strength is not graded here. Where a sequence is shown, tags or fusion partners need not be part of it. For some assays here: In cells and extracts the contact can be indirect.

By UniProt entry, the sequences of proteins in these tests, tags left out. Where a name states a change or a piece, a line headed by the entry shows the natural chain unless it says otherwise.
UniProt Q6NME6: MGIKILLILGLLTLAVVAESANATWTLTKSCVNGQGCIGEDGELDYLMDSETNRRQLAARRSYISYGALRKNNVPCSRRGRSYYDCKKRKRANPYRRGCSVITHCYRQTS
UniProt O81765: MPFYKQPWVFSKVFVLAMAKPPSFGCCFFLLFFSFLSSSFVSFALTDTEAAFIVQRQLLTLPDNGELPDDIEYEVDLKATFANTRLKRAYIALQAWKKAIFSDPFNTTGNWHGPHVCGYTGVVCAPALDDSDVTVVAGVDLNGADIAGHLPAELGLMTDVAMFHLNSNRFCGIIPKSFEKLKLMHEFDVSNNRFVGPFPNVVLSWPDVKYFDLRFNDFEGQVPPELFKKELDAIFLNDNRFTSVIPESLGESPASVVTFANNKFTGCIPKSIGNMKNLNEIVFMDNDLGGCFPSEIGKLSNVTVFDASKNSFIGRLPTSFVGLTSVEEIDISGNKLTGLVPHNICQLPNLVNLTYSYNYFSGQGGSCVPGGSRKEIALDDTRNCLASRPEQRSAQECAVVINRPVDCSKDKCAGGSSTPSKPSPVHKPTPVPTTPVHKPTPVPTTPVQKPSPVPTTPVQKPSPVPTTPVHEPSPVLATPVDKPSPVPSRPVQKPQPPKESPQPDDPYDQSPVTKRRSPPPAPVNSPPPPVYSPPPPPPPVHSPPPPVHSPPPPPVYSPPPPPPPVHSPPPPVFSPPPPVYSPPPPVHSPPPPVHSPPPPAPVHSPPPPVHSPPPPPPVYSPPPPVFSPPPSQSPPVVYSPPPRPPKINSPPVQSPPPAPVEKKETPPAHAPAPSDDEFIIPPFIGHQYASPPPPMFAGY

How the values were obtained:
[1] = molecular target: T1, LUC^N-AtSYP32 (Arabidopsis thaliana) (UniProt Q9LK09); test: split reporter
T1 sequence: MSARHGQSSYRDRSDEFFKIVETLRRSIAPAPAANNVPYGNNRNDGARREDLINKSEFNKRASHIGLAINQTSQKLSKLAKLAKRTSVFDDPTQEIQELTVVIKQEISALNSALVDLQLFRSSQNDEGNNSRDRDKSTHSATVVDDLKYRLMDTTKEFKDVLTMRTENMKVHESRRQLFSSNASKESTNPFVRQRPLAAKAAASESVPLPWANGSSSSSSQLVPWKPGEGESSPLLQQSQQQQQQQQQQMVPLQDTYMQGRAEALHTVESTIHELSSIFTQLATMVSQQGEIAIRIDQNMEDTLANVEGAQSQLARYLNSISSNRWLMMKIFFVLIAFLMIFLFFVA

[2] = molecular target: T2, AtSYP32 (yeast two-hybrid fusion) (Arabidopsis thaliana) (UniProt Q9LK09); test: two-hybrid
T2 sequence: T1 sequence

[3] = molecular target: T3, AtSYP31 (yeast two-hybrid fusion) (Arabidopsis thaliana) (UniProt Q9FFK1); test: two-hybrid
T3 sequence: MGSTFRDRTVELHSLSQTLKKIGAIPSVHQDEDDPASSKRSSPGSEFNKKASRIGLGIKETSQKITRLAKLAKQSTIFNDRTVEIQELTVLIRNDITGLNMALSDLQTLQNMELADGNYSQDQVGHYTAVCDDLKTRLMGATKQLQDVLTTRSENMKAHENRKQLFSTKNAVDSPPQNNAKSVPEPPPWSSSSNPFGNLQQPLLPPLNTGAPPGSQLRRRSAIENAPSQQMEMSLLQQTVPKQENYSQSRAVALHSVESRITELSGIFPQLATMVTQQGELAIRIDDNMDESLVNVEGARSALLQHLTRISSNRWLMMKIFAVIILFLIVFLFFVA

[4] = molecular target: T4, AtSYP32 (BiFC fusion) (Arabidopsis thaliana) (UniProt Q9LK09); test: split reporter
T4 sequence: T1 sequence

Substance | binding [1] | binding [2] | binding [3] | binding [4]
LUC^C-RALF19 (from UniProt Q6NME6) (ligand) | binds |  |  | 
LRX11 (yeast two-hybrid fusion) (from UniProt O81765) |  | binds | no binding | 
LRX11 (BiFC fusion) (from UniProt O81765) |  |  |  | binds
LUC^C-LRX11 (from UniProt O81765) | binds |  |  | 
RALF19 (BiFC fusion) (from UniProt Q6NME6) (ligand) |  |  |  | binds
RALF19 (yeast two-hybrid fusion) (from UniProt Q6NME6) (ligand) |  | binds | no binding | 
